The text below walks through data of publication PMC5727433.

No constants are given. Whether binding was seen depends on the method and setting. Binding seen in cells or lysates may run through a third protein. Some entries that bind do so weakly or less than the wild type.

The test addresses SMAD2 (human (endogenous in MCF10A-RAS)), Q15796. Description: co-IP; endogenous proteins; anti-SMAD2/3 immunoprecipitates from MCF10A-RAS cells treated with TGF-β (5 ng/ml), cells depleted of OTUD1 or expressing Myc-OTUD1-wt/C320A; immunoblot for SMAD4. The conditions noted are these: remark: other sources report otherwise.

B1: SMAD4, Q13485 1-552 (protein)
chain: MDNMSITNTPTSNDACLSIVHSLMCHRQGGESETFAKRAIESLVKKLKEKKDELDSLITAITTNGAHPSKCVTIQRTLDGRLQVAGRKGFPHVIYARLWRWPDLHKNELKHVKYCQYAFDLKCDSVCVNPYHYERVVSPGIDLSGLTLQSNAPSSMMVKDEYVHDFEGQPSLSTEGHSIQTIQHPPSNRASTETYSTPALLAPSESNATSTANFPNIPVASTSQPASILGGSHSEGLLQIASGPQPGQQQNGFTGQPATYHHNSTTTWTGSRTAPYTPNLPHHQNGHLQHHPPMPPHPGHYWPVHNELAFQPPISNHPAPEYWCSIAYFEMDVQVGETFKVPSSCPIVTVDGYVDPSGGDRFCLGQLSNVHRTEAIERARLHIGKGVQLECKGEGDVWVRCLSDHAVFVQSYYLDREAGRAPGDAVHKIYPSAYIKVFDLRQCHRQMQQQAATAQAAAAAQAAAVAGNIPGPGSVGGIAPAISLSAAAGIGVDDLRRLCILRMSFVKGWGPDYPRQSIKETPCWIEIHLHRALQLLDEVLHTMPIADPQPLD
B1: the binding result was “binds”.
